Experimental data as given in PMC3711430.
No constants are given. Whether binding was seen depends on the method and setting. Binding seen in cells or lysates may run through a third protein. Some entries that bind do so weakly or less than the wild type.

Sequences of proteins named here, by UniProt entry; tags and fusion partners are left off.
UniProt Q9DEY9: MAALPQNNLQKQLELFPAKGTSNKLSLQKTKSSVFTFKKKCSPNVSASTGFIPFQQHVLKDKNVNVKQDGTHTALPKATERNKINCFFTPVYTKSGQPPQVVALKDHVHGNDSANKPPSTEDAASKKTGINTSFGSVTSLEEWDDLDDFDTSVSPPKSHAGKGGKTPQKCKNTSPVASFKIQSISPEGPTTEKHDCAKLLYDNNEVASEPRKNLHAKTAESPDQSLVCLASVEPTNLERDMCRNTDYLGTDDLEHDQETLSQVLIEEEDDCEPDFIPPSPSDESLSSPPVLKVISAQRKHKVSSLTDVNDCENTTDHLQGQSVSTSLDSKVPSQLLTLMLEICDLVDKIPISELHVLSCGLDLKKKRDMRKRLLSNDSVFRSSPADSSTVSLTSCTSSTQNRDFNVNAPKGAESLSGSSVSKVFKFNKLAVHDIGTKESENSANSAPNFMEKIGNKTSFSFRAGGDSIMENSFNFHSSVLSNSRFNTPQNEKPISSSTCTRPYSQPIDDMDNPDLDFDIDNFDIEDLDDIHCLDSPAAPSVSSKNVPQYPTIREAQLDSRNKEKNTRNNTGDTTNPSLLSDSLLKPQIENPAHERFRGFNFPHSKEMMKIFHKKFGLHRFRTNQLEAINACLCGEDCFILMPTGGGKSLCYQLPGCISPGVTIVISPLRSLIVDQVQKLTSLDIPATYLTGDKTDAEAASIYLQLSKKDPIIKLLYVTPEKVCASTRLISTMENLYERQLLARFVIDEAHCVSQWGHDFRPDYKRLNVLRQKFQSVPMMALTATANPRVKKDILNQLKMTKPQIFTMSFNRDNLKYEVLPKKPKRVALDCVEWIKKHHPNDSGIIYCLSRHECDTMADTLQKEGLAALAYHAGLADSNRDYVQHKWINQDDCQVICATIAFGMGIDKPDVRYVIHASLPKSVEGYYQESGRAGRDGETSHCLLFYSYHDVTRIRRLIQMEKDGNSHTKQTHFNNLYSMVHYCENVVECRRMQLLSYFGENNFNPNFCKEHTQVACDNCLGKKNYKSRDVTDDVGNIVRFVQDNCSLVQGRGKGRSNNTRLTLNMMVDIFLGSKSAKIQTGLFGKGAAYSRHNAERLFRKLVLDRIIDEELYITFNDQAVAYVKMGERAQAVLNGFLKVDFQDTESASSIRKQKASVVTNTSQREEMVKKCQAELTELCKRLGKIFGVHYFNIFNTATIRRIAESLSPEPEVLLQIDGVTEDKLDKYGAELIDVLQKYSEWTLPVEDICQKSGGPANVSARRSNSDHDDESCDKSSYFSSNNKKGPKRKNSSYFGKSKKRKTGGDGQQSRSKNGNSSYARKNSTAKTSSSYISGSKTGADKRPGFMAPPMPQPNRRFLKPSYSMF

Biological target: Xenopus BLM (Bloom's helicase) (Xenopus laevis (endogenous in egg extracts)) (UniProt Q9DEY9)
Test: co-IP; Xenopus S-phase egg extracts, mock- or FANCD2-depleted, DNA-free or incubated with dsDNA fragments for 10 min; BLM antibody on Sepharose 4B beads, overnight at 4°C; IP buffer 10 mM Tris pH 7.4, 150 mM NaCl, 1% NP-40, 0.5% sodium deoxycholate, 1 mM EDTA, 1 mM DTT; western blot

B1: Xenopus RMI1 (protein, UniProt Q6DDH2 1-557)
chain: MMATSGIANRVKTWLISTWHVKVPDPWLEACINWIQEENGSSLLQAEINKQVFEQWLLTDLRDLEFPVLPANITDSLKCELNGFHAVQMDSLVDISLPAYSQLQKLKGKDSTNEQVTCTTQQSQKPWEAKPTRMLMLQLTDGTQHIQAMEYRPIQALNANLSPGTKMVLQGTIVCRLGVLLLKPENVKVLGGEVEALVAEYTQTKVLSRLIGVEDNTVAQHSNVQEHAAGVAAGELGQALGPSDEDLLASLEENEEFSINNGVPSESGYYSRNENSSISSSTQHQTQDSIVRCWVDDDILEFSINNGVPSESGYYSRNENSSISSSTQHQTQDSIVRQTSFPMLDQTVVHVNVANNHAIEEQFDIDDELFLEEEIQRELEEMSMSQAEVTHGSTDLPTTLSATSHASSASCTSDQNNIDIPPYTYLSTILASKSRSITCVKLKSFIVTLNGNLSHSCGLWNIKAKISDGTGYLNVEFSDDVLTELIGFTVPEMKTLKKDPSQQSTLMEGLQKCQRMLTDFCGVMTVSYNPAKEEAVVLSLQDVTEEIMQSLQKLLRS
For B1, the binding was “binds”.
